Results: PubChem BioAssay AID1625 (Sanford-Burnham Center for Chemical Genomics, 2009)
Hit rate of the full screen: of about 190,000 compounds, about 570 (0.3%) were called active. The shares of active, inactive and inconclusive entries below differ from those in the screen.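 Rule for the calls: active = z-score above 3 at 5 µM with at least 500 cells counted in the well; inconclusive = wells under 500 cells, flagged as cytotoxic or low count; inactive = the rest.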

assay: up-regulation of insulin promoter-GFP reporter – imaging, high-content screening, mouse beta cells (AID 1625); settings: MIN6 insulin promoter-GFP reporter, at 5 µM, hits give high values

| SMILES | z-score |
| --- | --- |
| O=C(Nc1nccs1)c1ccc(Cl)cc1[N+](=O)[O-] | inactive: -0.13 |
| O=C(COC(=O)CNC(=O)c1ccccc1)Nc1ccc(Cl)cc1C(F)(F)F | inconclusive: -6.11 |
| CCc1ccc(-c2nn(-c3ccccc3)cc2CSC(=N)N)cc1 | inconclusive: -3.55 |
| O=c1cc2oc3cc(O)c(O)cc3c(-c3ccccc3O)c-2cc1O | active: 15.3 |
| CCN1CCC(CNCc2cn(-c3ccc(OC)cc3)nc2-c2ccccc2Cl)C1 (stereo not drawn) | inactive: -0.6 |
| COc1cc(/C=C2\SC(=S)N(CC(=O)Nc3ccccn3)C2=O)cc(OC)c1OC | inactive: -0.11 |
| CCOC(=O)c1c(C)oc2c1c(C(c1ccccc1)N1CCOCC1)c(O)c1ccccc12 (stereo not drawn) | inactive: 0.93 |
| Fc1ccc(C2=CC(c3ccc(Br)o3)n3ncnc3N2)cc1 (stereo not drawn) | inactive: 0.82 |
| CC(C)CN1C(=O)/C(=C/c2c(N3CCc4ccccc4C3)nc3ccccn3c2=O)SC1=S | active: 16.9 |
| COc1ccc(C[C@H]2CN3C(=NC[C@@H]3Cc3ccccc3)N2C[C@H](C)NC(=O)CCC2CCCCC2)cc1 | inconclusive: -0.36 |
| CC(C)OC(=O)C[N+](C)(C)CCN1C(=O)C2C(c3ccccc3)C=CC(c3ccccc3)C2C1=O (stereo not drawn) | inconclusive: 2.52 |
| CC1CCCN(CCCOc2ccc(Cl)cc2Br)C1 (stereo not drawn) | inactive: 0.49 |
| O=[N+]([O-])c1ccc(/C=N/NC(=S)Nc2ccccc2)o1 | inactive: 1.32 |
| Cc1cc(C)c(NC(=O)c2ccccc2C(=O)c2ccccc2)c(C)c1 | inactive: -2.58 |
| CCCCC1=CC2=CC(=O)C(C)(OC(=O)CC)C(=O)C2=CN1Cc1ccco1 (stereo not drawn) | inconclusive: -0.41 |
| CC(C)CCn1c(-c2nonc2N)nc2ccccc21 | inactive: -0.23 |
| N#Cc1nc(Cc2cccc3ccccc23)oc1NCCCN1CCOCC1 | inactive: -1.07 |
| O=C(c1cccs1)N(Cc1ccco1)Cc1cc2ccccc2[nH]c1=O | inconclusive: -0.15 |
| CC(C)(C)c1ccc(C(=O)N2CCCN(c3ccc([N+](=O)[O-])cn3)CC2)cc1 | inactive: -0.13 |
| COCCCNC(=O)c1cc(C(=O)c2ccccc2Br)c[nH]1 | inactive: -0.42 |
| COc1ccc2c(c1)[nH]c1c(N3CCN(Cc4ccc5c(c4)OCO5)CC3)ncnc12 | inconclusive: -3.68 |
| O=C(NCc1ccccc1)c1cncc(Br)c1 | inconclusive: -2.72 |
| O=C(c1cccs1)N1N=C(c2ccccc2)CC1c1ccccc1O (stereo not drawn) | inactive: -0.32 |
| Cc1ccc(NC(=O)COC(=O)CCc2ccc(S(=O)(=O)N3CCOCC3)cc2)cc1F | inactive: -0.6 |

Individual results from the results shown.
z-score, COc1ccc2c(c1)[nH]c1c(N3CCN(Cc4ccc5c(c4)OCO5)CC3)ncnc12 is entered as inconclusive: -3.68
z-score, O=C(Nc1nccs1)c1ccc(Cl)cc1[N+](=O)[O-] is entered as inactive: -0.13
z-score, Fc1ccc(C2=CC(c3ccc(Br)o3)n3ncnc3N2)cc1 (stereo not drawn) is entered as inactive: 0.82
z-score, COCCCNC(=O)c1cc(C(=O)c2ccccc2Br)c[nH]1 is entered as inactive: -0.42

(listing goes on)

| SMILES | z-score |
| --- | --- |
| CC(O)CSc1nc2c(c(=O)n(C)c(=O)n2C)n1CCCc1ccccc1 (stereo not drawn) | inconclusive: 0.51 |
| COc1ccc(-c2nc3cc(NC(=O)Cc4ccc(OC)c(OC)c4)ccc3o2)cc1 | inconclusive: -7.6 |
| Cc1cccc2cc(-c3ccccc3)c(-c3ccccc3)c[n+]12 | inconclusive: -1.22 |
| Cc1ccc(C(=O)Nc2ncc(Cc3ccc(SC(F)F)cc3)s2)cc1 | inactive: -0.46 |
| Cc1nn(Cc2ccc(C(=O)NC(C)(C)C)o2)c(C)c1Br | inconclusive: -0.45 |
| COC(=O)c1cnn2c(C(F)(F)F)cc(-c3ccc(F)cc3)nc12 | active: 4.23 |
| COc1ccc(C)cc1NC(=O)CC(NC(C)=O)c1ccccc1 (stereo not drawn) | active: 4.5 |
| COC(=O)c1sccc1NC(=O)c1cc(OC)c(OC)c(OC)c1 | active: 3.71 |
| Cn1c(=O)c2c(nc(NCc3ccc4c(c3)OCO4)n2Cc2ccccc2F)n(C)c1=O | inconclusive: -0.57 |
| CCN(CC)c1nc(SCCOC(=O)Nc2ccccc2)nc(N(CC)CC)n1 | inconclusive: -1.72 |
| Cc1cccc2sc(NNC(=O)c3ccc4c(c3)OCCO4)nc12 | active: 3.4 |
| Cc1ccccc1OCC(O)Cn1c(=N)n(Cc2ccccc2)c2ccccc21 (stereo not drawn) | inconclusive: -3.19 |
| O=C(NCCc1csc(-c2ccccc2)n1)c1ccccc1F | active: 4.15 |
| COC(=O)c1c[nH]n2c(=O)c(Cc3ccc(F)cc3Cl)c(C)nc12 | active: 3.42 |
| NC(N)=NC(N)=Nc1ccc(SC(F)(F)F)cc1 | inconclusive: -5.1 |
| Cc1ccc2c(c1)[nH]c1c(N3CCN(Cc4ccc5c(c4)OCO5)CC3)ncnc12 | inconclusive: -5.69 |
| CCCCCCn1c2c(c(=N)c3c1CCC3)CCC2 | inconclusive: -6.53 |
| COc1ccc(CN(C)c2ncnc(N)n2)cc1 | inactive: -0.26 |
| Nc1nc(-c2ccc(Cl)cc2)c(N=Nc2ccc(S(=O)(=O)N3CCOCC3)cc2)s1 | active: 3.8 |
| COc1cccc(COc2cc3ccccc3nc2C)c1 | inconclusive: -6.49 |
| CCOc1cc(CNCCc2ccc(S(N)(=O)=O)cc2)ccc1OCc1ccc(Cl)cc1 | inconclusive: -3.89 |
| N#CC(C#N)=C1C=CC=CN1/C(=C\c1ccco1)C(=O)c1ccc(Br)cc1 | inconclusive: -1.4 |
| COc1nc(Nc2nc3ccccc3c(=O)[nH]2)nc2ccc(C)cc12 | inconclusive: -1.61 |
| CCNc1ccc(Br)cc(C(=O)/C=C/c2c(Cl)cccc2Cl)c1=O | inconclusive: 11.2 |

| SMILES | z-score |
| --- | --- |
| C=CCn1c(NCc2ccc3c(c2)OCO3)nc2ccccc21 | inactive: -1.01 |
| Cc1ccc(C(=O)N2CCOCC2)cc1[N+](=O)[O-] | inactive: 0.36 |
| CCC(C)(C)c1ccc(OCCCC[n+]2cccc(C)c2C)c(C(C)(C)CC)c1 | inconclusive: -1.74 |
| COC(=O)c1cc(CSc2nnc(-c3ccccc3)c(-c3ccccc3)n2)oc1C | inconclusive: -0.98 |
| CCc1ccccc1Nc1nc2ccccc2n1C | inactive: 0.08 |
| CN(Cc1ccccc1)C1=CC(=[N+]2CCCC2)CC(C)(C)C1 | inconclusive: -1.91 |
| Cc1nc2ccccc2c2c1CC(C(C)(Cl)Br)O2 (stereo not drawn) | inconclusive: -1.2 |
| CCSc1nnc(N2C(=O)CC(c3ccsc3)C3=C2CC(C)(C)CC3=O)s1 (stereo not drawn) | inactive: -1.48 |
| Cc1ccc(Cn2c(-c3nonc3N)nc3ccccc32)cc1 | inactive: 0.48 |
| Cn1c(=O)oc2cc(S(=O)(=O)N3CCCC(C(=O)NCc4ccc5c(c4)OCO5)C3)ccc21 (stereo not drawn) | inconclusive: -3.37 |
| CCS(=O)(=O)c1ccc(N=Nc2ccc(O)c3ncccc23)c(OC)c1 | inconclusive: -4.64 |
| Cc1ccccc1NC1=C/C(=N\S(=O)(=O)c2cccs2)c2ccccc2C1=O | inconclusive: -5.57 |
| CCCN(CCC)C(=O)CSc1nc2n[nH]c(C)c2c(=N)n1-c1ccc(OC)cc1 | inconclusive: -2.79 |
| COc1ccccc1NC(=O)COC(=O)C1CC2C=CC1C2 (stereo not drawn) | active: 3.01 |
| CCOC(=O)N1CCN(C(=O)c2cn(CC)c3ccc(S(=O)(=O)N4CCCC4)cc3c2=O)CC1 | inactive: 0.36 |
| O=C(Cc1ccc(Cl)cc1)N/N=C/c1c(Cl)cccc1Cl | inactive: -0.44 |
| CCCCN1/C(=C/c2ccc3ccccc3[n+]2CC)Sc2ccccc21 | inconclusive: 15.2 |
| Clc1cncc(Cl)c1NNc1c2ccccc2nc2ccccc12 | inactive: 0.06 |
| O=C(CNC(=O)c1ccco1)OCC(=O)c1ccccc1 | active: 4.35 |
| Cc1ccc2c(c1)c1c3n2CCCNC3CCC1 (stereo not drawn) | inconclusive: -0.09 |
| CC1C/C(=C/c2ccncc2)C(=O)/C(=C/c2ccncc2)C1 (stereo not drawn) | inconclusive: -3.8 |
| Cn1c(-c2ccc(F)cc2)cnc1SCC(=O)N1CCCc2ccccc21 | inconclusive: -4.65 |
| Nc1c(Cl)ncnc1N/N=C/c1ccc2ccccc2n1 | inconclusive: -2.33 |
| CCCCCC(=O)NC(=S)Nc1ccc(Cl)cn1 | inactive: 0.17 |

| SMILES | z-score |
| --- | --- |
| COC(=O)c1c(C)oc2ccc(N(C(=O)c3ccncc3)S(=O)(=O)c3ccc(C)cc3)cc12 | inconclusive: -2.63 |
| Cc1cccc2sc(NC(=O)C3CCCN(S(=O)(=O)c4cccc5nonc45)C3)nc12 (stereo not drawn) | active: 6.61 |
| CC(=O)C1=NN(c2ccccc2)C(c2cccs2)N1c1ccc(N(C)C)cc1 (stereo not drawn) | inconclusive: -7.73 |
| O=C(NCc1ccco1)C(=O)N1CCCC1 | inactive: 0.4 |
| O=C(/C=C/c1cn(CC(O)CN2CCCCC2)c2ccccc12)c1cccs1 (stereo not drawn) | active: 4.58 |
| O=C(Nc1nccs1)C1(c2ccc(Cl)cc2)CC1 | inconclusive: 1.88 |
| COC(=O)CSc1ccc2nnc(CCNS(=O)(=O)c3ccccc3)n2n1 | inactive: -0.01 |
| Cc1sc2nc(-c3ccccn3)[nH]c(=O)c2c1-c1ccccc1 | inactive: -3.11 |
| CC(C)(C)C(=O)/C(=C/c1cccc([N+](=O)[O-])c1)n1cncn1 | inconclusive: -4.55 |
| N#CCc1nc(CSc2nc3ccccc3s2)cs1 | active: 4.03 |
| CCOC(=O)C1C(=O)N(C(=O)c2cncc(Br)c2)CC1c1ccccc1 (stereo not drawn) | inactive: 0.81 |
| COc1cccc(/C=N/Nc2ncc(C(F)(F)F)cc2Cl)c1O | inconclusive: -4.85 |
| O=C1COc2ccc(C(=O)COc3ccc([N+](=O)[O-])cc3)cc2N1 | inactive: 0.32 |
| COc1ccc(CCNc2ncnc3c2oc2ccccc23)cc1OC | inconclusive: -2.09 |
| CC[n+]1c(/C=C/N(C)c2ccccc2)oc2ccc(Cl)cc21 | inconclusive: -1.99 |
| Cc1c(C(=O)C(=O)NCc2cccs2)c2ccccc2n1C | inactive: 0.36 |
| CCOC(=O)c1ccc(N2CCOCC2)c(NC(=O)COCC(=O)O)c1 | inactive: 0.11 |
| CCCC(=O)c1c(C)c2ccccc2n1C | active: 3.01 |
| COc1ccccc1-[n+]1c(C)cc(/C=C2\Sc3ccccc3N2C)cc1C | inconclusive: 15.8 |
| COC(=O)c1ccccc1-c1ccc(/C=N/NC(=O)c2cc3ccccc3o2)o1 | inactive: 0.06 |
| CCOC(=O)C1=C(C)N(CCCC(=O)O)C(=O)NC1c1ccccc1OS(=O)(=O)c1ccc(C)cc1 (stereo not drawn) | inactive: 0.25 |

Ordered by heavy-atom count (low to high): some entries from above.

| SMILES | z-score |
| --- | --- |
| O=C(NCc1ccco1)C(=O)N1CCCC1 | inactive: 0.4 |
| CC(=O)C1=NN(c2ccccc2)C(c2cccs2)N1c1ccc(N(C)C)cc1 (stereo not drawn) | inconclusive: -7.73 |
| COC(=O)c1c(C)oc2ccc(N(C(=O)c3ccncc3)S(=O)(=O)c3ccc(C)cc3)cc12 | inconclusive: -2.63 |
